The results in this text go back to paper PMC3114845, “Bordetella pertussis Autotransporter Vag8 Binds Human C1 Esterase Inhibitor and Confers Serum Resistance” (PLoS ONE, 2011).

By UniProt entry, the sequences of proteins in these tests, tags left out. Where a name states a change or a piece, a line headed by the entry shows the natural chain unless it says otherwise.
UniProt Q79GN7: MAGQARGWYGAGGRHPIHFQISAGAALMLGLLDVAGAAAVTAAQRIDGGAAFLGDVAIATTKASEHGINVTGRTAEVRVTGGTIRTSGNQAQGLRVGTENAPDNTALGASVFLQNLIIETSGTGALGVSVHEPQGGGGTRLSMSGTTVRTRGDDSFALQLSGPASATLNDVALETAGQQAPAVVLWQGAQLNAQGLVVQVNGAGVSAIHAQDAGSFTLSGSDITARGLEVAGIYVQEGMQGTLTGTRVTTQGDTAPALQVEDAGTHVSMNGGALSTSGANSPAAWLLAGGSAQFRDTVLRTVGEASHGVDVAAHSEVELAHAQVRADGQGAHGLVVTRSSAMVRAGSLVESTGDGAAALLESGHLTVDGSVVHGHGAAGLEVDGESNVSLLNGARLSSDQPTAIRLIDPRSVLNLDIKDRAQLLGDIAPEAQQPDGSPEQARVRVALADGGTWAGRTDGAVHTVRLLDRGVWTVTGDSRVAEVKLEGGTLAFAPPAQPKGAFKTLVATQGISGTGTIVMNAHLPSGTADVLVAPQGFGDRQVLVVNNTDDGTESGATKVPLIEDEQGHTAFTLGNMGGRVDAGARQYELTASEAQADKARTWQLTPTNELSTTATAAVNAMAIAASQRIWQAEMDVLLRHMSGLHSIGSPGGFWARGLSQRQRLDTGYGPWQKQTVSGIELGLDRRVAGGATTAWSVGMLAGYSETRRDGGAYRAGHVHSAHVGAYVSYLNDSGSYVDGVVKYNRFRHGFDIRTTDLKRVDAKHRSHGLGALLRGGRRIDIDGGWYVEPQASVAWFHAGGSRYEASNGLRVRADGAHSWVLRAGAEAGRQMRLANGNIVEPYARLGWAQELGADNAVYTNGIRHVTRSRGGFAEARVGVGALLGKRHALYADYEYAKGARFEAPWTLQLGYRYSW

Results are given in words; binding and its absence hold for the method and conditions named. For some assays here: Binding calls can cover weak binding; strength is not graded here.

Test [1] deals with autotransporter Vag8 of B. pertussis BP338 (endogenous) (Bordetella pertussis (endogenous in BP338)) (UniProt Q79GN7). Briefly: far-Western, overlay or dot blot; whole-cell lysates of B. pertussis on 11% SDS-PAGE, blotted on PVDF, renatured (6 M guanidine-HCl, then long wash), overlaid with 1% normal human serum in Veronal buffer, 1 h room temperature; detected with anti-C1inh.
Test [2] addresses autotransporter Vag8 of B. pertussis 18-323Sm^r (endogenous) (Bordetella pertussis (endogenous in 18-323Sm^r)). The test is described as follows: surface-binding assay (bacteria in serum, immunoblot of cell-associated C1inh); viable bacteria exposed to normal human serum 15 min at 37°C, on ice 5 min, washed 3 times, pelleted; cell-associated C1inh detected by immunoblot; vag8 knock-out strains as controls.

The target of test [3] is Vag8 expressed from plasmid pVag8 in BP338Vag8^- (Bordetella pertussis) (UniProt Q79GN7). Described as above.
Test [4] concerns the target autotransporter Vag8 of B. pertussis BP338 (endogenous) (Bordetella pertussis (endogenous in BP338)) (UniProt Q79GN7). The description is as above.
Test [5] addresses histidine-tagged BrkA passenger domain (Bordetella pertussis). The test is described as follows: condition: 10 µg/ml purified C1inh; coat up to 5 µg/ml; ELISA; MaxiSorp plates coated with two-fold dilutions of purified passenger domain (top 5 µg/ml, PBS pH 7.4, overnight 4°C); probed 1 h at room temperature with 10 µg/ml purified human C1inh; detected with goat anti-C1inh; both purified. In general terms: In an ELISA, binding on a coated surface is turned into a signal by an enzyme label.

B1: C1 esterase inhibitor in normal human serum (protein, UniProt P05155 23-500)
chain: NPNATSSSSQDPESLQDRGEGKVATTVISKMLFVEPILEVSSLPTTNSTTNSATKITANTTDEPTTQPTTEPTTQPTIQPTQPTTQLPTDSPTQPTTGSFCPGPVTLCSDLESHSTEAVLGDALVDFSLKLYHAFSAMKKVETNMAFSPFSIASLLTQVLLGAGENTKTNLESILSYPKDFTCVHQALKGFTTKGVTSVSQIFHSPDLAIRDTFVNASRTLYSSSPRVLSNNSDANLELINTWVAKNTNNKISRLLDSLPSDTRLVLLNAIYLSAKWKTTFDPKKTRMEPFHFKNSVIKVPMMNSKKYPVAHFIDQTLKAKVGQLQLSHNLSLVILVPQNLKHRLEDMEQALSPSVFKAIMEKLEMSKFQPTLLTLPRIKVTTSQDMLSIMEKLEFFDFSYDLNLCGLTEDPDLQVSAMQHQTVLELTETGVEAAAASAISVARTLLVFEVQQPFLFVLWDQQHKFPVFMGRVYDPRA
Consider B1, for which the binding result in test [1], in test [2], in test [3] and in test [4] was “binds” in each case.

B2: purified human C1 esterase inhibitor (natural protein)
chain: NPNATSSSSQDPESLQDRGEGKVATTVISKMLFVEPILEVSSLPTTNSTTNSATKITANTTDEPTTQPTTEPTTQPTIQPTQPTTQLPTDSPTQPTTGSFCPGPVTLCSDLESHSTEAVLGDALVDFSLKLYHAFSAMKKVETNMAFSPFSIASLLTQVLLGAGENTKTNLESILSYPKDFTCVHQALKGFTTKGVTSVSQIFHSPDLAIRDTFVNASRTLYSSSPRVLSNNSDANLELINTWVAKNTNNKISRLLDSLPSDTRLVLLNAIYLSAKWKTTFDPKKTRMEPFHFKNSVIKVPMMNSKKYPVAHFIDQTLKAKVGQLQLSHNLSLVILVPQNLKHRLEDMEQALSPSVFKAIMEKLEMSKFQPTLLTLPRIKVTTSQDMLSIMEKLEFFDFSYDLNLCGLTEDPDLQVSAMQHQTVLELTETGVEAAAASAISVARTLLVFEVQQPFLFVLWDQQHKFPVFMGRVYDPRA
notes: also called C1inh; purified C1inh; source: bought: Advanced Research Technologies (purified human C1inh)
Regarding B2, in test [5], the binding entry is listed as “no binding”.
